# Reference: PubChem BioAssay AID1159508 (Drosophila RNAi Screening Center, 2015)
# Purpose: 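Overall cell fitness after RNAi as a quality check of the library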
# Cells: Drosophila S2R+ cells
# Reagent: long dsRNA against Drosophila genes
# Time to read-out: 5 days
# Detection: 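Total ATP per well measured by luciferase luminescence after 5 days, expressed as z-scores for each replicate and as their average across up to three replicates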
# Direction: mean ATP z-score and ATP z-score: higher = more total ATP luminescence
# Call rule: In these data the active calls have mean ATP z-score at about -2 or lower, or at about 2 or higher
# Meaning of the calls: active = strong ATP change (up or down); inactive = no strong ATP change
# Shown is a random part of 812 reagents. 18 of all reagents (2.2%) were called active. 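Calls include both increased and decreased ATP; roughly one in four reagents has no third replicate value.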 A number with no mark means an inactive call. Not all columns of the deposit are shown. Not stated in the record: the amount of reagent.
Target gene,amplicon,mean ATP z-score,"ATP z-score, replicate 1","ATP z-score, replicate 2"
CG7488,DRSC16250,-0.192,-0.417,-0.108
CG7488,DRSC42699,0.506,-0.142,0.666
cyp33,DRSC32449,-0.475,-0.659,-0.393
cyp33,DRSC32450,-0.592,-0.807,-0.46
Atx-1,DRSC18365,0.903,0.531,0.632
Atx-1,DRSC42654,-0.195,-0.819,-0.0941
Saf-B,DRSC16167,-1.58,-1.58,-1.37
Saf-B,DRSC28393,-0.959,-0.98,-0.814
snRNP-U1-C,DRSC15804,0.0916,-0.102,0.274
snRNP-U1-C,DRSC30973,0.0904,-0.00301,0.061
CG12493,DRSC08279,0.205,-0.221,0.376
CG12493,DRSC25535,0.322,0.131,0.288

Sorted by “ATP z-score, replicate 1” (high to low): 4 of the entries above
Target gene,amplicon,mean ATP z-score,"ATP z-score, replicate 1","ATP z-score, replicate 2"
CG7488,DRSC42699,0.506,-0.142,0.666
CG7488,DRSC16250,-0.192,-0.417,-0.108
cyp33,DRSC32449,-0.475,-0.659,-0.393
cyp33,DRSC32450,-0.592,-0.807,-0.46

Additional reagents follow.
Target gene,amplicon,mean ATP z-score,"ATP z-score, replicate 1","ATP z-score, replicate 2"
mof,DRSC24125,-0.244,-0.607,-0.305
mof,DRSC32503,-0.983,-1.49,-0.9
CG4021,DRSC04439,-0.593,-0.869,-0.601
CG4021,DRSC25492,-0.0539,-0.26,-0.0317
Sbds,DRSC10992,0.0542,-0.0608,0.162
Sbds,DRSC42686,0.487,0.197,0.522
l(1)G0004,DRSC20486,-0.605,-0.822,-0.638
l(1)G0004,DRSC42650,0.0133,-0.224,-0.217
Gld2,DRSC23037,1.61,1.06,1.67
Gld2,DRSC27759,1.05,0.397,1.57
Lon,DRSC26015,-0.599,-1,-0.576
Lon,DRSC41205,-1.15,-1.3,-0.861
